From the M2OR odorant receptor database
Substitutions are numbered along the chain they refer to. The list shows a part of the results, in another mix than the full data. The calls were merged from several studies; some rest on single wells. The list shows a part of the results.

Chains of the proteins cited; added tags and fusions are not shown. Chains listed by the source or under a name are the forms on record and can include a tag or linker.
O4C46, as listed by the source: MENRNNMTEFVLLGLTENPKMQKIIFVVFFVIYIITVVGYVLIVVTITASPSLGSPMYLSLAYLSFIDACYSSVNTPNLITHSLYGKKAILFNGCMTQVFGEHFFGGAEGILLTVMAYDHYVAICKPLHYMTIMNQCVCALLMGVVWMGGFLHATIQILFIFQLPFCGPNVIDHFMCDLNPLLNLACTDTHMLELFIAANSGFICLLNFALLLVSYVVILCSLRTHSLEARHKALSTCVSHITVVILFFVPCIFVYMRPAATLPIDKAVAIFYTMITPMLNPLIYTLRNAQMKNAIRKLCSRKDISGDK
O4F17, as listed by the source: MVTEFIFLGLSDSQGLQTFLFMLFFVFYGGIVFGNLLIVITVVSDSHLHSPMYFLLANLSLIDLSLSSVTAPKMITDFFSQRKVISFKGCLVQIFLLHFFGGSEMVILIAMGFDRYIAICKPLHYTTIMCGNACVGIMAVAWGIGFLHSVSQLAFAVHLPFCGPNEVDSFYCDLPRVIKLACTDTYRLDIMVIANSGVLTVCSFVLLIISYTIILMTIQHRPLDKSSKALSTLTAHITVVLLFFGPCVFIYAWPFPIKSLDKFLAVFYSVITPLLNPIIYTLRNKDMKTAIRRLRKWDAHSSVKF

Tests used:
Details in all cases: stereoisomer not certain
O4A47 = tested on: T1, O4A47
T1 sequence (whole entry): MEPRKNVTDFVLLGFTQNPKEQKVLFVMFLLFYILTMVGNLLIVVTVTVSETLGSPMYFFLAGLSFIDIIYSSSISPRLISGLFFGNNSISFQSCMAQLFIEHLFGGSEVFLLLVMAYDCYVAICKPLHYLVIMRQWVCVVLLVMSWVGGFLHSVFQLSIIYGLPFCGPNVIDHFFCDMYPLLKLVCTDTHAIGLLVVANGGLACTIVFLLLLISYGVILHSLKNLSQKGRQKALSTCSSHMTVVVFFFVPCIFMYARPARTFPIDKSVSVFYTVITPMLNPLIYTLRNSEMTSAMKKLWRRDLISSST
In short: (§1)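 Each receptor–molecule pair is labelled responsive or non-responsive (inactive) according to whether the original authors judged the measured signal statistically different from baseline. The data were taken from the main text and supplementary material of published papers and checked for typos and inconsistencies. Assay methods differed by source, with transient luciferase assays in mammalian cell lines being common.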

O4C46 = tested on: O4C46
In short: as §1

O4F17 [1] = tested on: T2, O4F17
T2 sequence (whole entry): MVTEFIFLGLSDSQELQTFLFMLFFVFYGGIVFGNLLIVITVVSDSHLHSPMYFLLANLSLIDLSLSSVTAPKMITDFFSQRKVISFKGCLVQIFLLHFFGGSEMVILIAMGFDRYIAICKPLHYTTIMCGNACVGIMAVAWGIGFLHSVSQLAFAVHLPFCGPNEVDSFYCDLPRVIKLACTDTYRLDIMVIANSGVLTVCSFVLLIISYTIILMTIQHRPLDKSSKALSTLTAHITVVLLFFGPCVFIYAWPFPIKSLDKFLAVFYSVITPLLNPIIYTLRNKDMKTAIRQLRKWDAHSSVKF
In short: as §1

O4F17 [2] = tested on: T3, O4F17; remark: listed apart in the source
T3 sequence (whole entry): T2 sequence (whole entry) with E15G, Q293R
In short: as §1

O4F21 = tested on: T4, O4F21
T4 sequence (whole entry): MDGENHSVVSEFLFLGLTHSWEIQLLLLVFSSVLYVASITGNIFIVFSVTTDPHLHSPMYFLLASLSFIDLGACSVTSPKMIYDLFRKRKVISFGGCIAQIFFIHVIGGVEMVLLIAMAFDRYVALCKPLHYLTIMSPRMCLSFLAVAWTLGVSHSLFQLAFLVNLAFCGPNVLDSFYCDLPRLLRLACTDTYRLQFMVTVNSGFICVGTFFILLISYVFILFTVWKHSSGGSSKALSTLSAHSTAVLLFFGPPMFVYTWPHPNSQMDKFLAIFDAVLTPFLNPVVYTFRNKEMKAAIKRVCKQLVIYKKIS
In short: as §1

O51A4 = tested on: T5, O51A4
T5 sequence (whole entry): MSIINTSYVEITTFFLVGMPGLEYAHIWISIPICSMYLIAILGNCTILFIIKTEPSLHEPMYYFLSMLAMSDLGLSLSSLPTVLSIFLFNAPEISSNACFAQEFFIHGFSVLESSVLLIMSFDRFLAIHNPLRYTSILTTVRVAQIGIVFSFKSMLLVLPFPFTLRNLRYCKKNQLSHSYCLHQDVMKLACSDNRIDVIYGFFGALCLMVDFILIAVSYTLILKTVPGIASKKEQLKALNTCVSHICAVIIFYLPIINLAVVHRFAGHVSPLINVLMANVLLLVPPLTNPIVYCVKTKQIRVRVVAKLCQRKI
In short: as §1

O51B4 = tested on: T6, O51B4
T6 sequence (whole entry): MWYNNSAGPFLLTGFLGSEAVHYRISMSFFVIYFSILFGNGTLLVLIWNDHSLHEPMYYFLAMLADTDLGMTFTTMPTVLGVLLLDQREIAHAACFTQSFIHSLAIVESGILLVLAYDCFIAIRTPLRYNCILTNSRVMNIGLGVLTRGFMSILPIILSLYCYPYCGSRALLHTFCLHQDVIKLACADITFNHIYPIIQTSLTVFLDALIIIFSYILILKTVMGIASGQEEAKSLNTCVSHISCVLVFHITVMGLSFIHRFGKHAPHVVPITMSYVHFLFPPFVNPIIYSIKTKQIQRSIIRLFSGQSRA
In short: as §1

O51B5 = tested on: T7, O51B5
T7 sequence (whole entry): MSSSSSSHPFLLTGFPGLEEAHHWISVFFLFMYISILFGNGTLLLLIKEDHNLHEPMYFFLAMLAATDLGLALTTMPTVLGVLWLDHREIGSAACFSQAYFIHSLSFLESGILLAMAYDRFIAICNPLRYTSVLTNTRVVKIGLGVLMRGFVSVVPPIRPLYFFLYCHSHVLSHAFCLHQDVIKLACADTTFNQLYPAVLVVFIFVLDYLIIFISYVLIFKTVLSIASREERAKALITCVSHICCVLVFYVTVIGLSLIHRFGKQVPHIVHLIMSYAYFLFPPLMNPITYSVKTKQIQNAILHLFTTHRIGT
In short: as §1

O51B6 = tested on: T8, O51B6
T8 sequence (whole entry): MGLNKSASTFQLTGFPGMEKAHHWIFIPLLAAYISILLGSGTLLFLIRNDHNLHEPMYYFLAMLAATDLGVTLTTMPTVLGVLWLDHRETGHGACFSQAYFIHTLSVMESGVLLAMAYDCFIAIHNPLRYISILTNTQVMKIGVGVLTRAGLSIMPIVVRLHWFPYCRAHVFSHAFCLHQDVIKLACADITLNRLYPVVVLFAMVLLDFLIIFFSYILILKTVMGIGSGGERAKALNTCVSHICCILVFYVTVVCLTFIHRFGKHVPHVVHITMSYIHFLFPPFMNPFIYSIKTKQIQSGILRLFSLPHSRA
In short: as §1

O51E1 = tested on: T9, O51E1
T9 sequence (whole entry): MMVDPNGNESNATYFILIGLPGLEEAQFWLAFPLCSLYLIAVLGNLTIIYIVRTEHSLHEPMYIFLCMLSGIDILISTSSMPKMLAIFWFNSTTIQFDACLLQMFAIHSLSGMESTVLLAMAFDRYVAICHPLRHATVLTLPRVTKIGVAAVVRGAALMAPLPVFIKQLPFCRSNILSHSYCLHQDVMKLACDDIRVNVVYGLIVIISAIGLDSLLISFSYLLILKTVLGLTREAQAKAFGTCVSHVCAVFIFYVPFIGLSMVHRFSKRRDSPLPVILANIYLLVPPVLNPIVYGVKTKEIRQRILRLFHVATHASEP
In short: as §1
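Note: active if original authors judged signal statistically different from baseline.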

| Structure (SMILES) | odorant receptor agonist call (O4A47) | odorant receptor agonist call (O4C46) | odorant receptor agonist call (O4F17 [1]) | odorant receptor agonist call (O4F17 [2]) | odorant receptor agonist call (O4F21) | odorant receptor agonist call (O51A4) | odorant receptor agonist call (O51B4) | odorant receptor agonist call (O51B5) | odorant receptor agonist call (O51B6) | odorant receptor agonist call (O51E1) |
| --- | --- | --- | --- | --- | --- | --- | --- | --- | --- | --- |
| CCC(C)=O | inactive | inactive | inactive | active | inactive | inactive | inactive | inactive | inactive | inactive |
| CCCCOC(C)=O | inactive | inactive | inactive | inactive | inactive | inactive | active | inactive | inactive | inactive |
| CS | inactive | inactive | inactive | inactive | inactive | inactive | inactive | inactive | inactive | inactive |
